Some of the results follow. These are further read-outs of the screen, such as a control signal, another cell line or another target. No call is given for them. Compounds called inactive in the main read-out are mostly missing here. Potencies come from curve fits of mixed quality, noted in brackets.

One test is described as follows: qHTS assay for small molecule antagonists of peroxisome proliferator-activated receptor gamma signaling (AID 588537). The settings on record: HEK293 PPARg-UAS-bla, beta-lactamase ratio, antagonist mode; measured here: W460 blue channel. The method, boiled down: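 Step one: plate 3000 HEK293 UAS-bla cells per well in medium with 1% stripped serum and hold 6-6.5 h at 37 C. Step two: add compound and 50 nM agonist for 16 h. Step three: CCF4 loading, fluorescence read.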
The AC50 is the concentration at which the activity in the assay is half-maximal. On to `CCOP(=O)(OCC)Oc1ccc([N+](=O)[O-])cc1`, for which the AC50 was 25.1 µM [falling, partial curve, poor fit].
Turning to `CCOP(=O)(OCC)O/C(=C/Cl)c1ccc(Cl)cc1Cl`, the AC50 is 0.0447 µM [falling, full curve, poor fit].
Same read-out and setting: the figure for `CC(C)(OOC(C)(C)c1ccccc1)c1ccccc1` is 0.00251 µM [falling, full curve, poor fit]; for `CC[n+]1c(-c2ccccc2)c2cc(N)ccc2c2ccc(N)cc21` it is 28.2 µM [falling, partial curve, poor fit].

A further test is described as follows: qHTS assay for small molecule antagonists of vitamin D receptor signaling (AID 588541). To be noted: HEK293T VDR-UAS-bla, beta-lactamase ratio, antagonist mode; measured here: W460 blue channel (cell viability). On the technique in general: In qHTS, concentration-response curves come from the screen itself.
`CCC[CH2][Sn]([Cl])([Cl])[CH2]CCC`: the AC50 is 25.1 µM [falling, partial curve].
On the same count and under the same terms, the figure for `Nc1ccccc1` is 0.0282 µM [rising, full curve, poor fit].
Regarding `COP(=O)(OC)OC(Br)C(Cl)(Cl)Br` (stereo unspecified), the AC50 is 44.7 µM [falling, partial curve, poor fit].
Turning to `CCSCCSP(=O)(OC)OC`, the AC50 is 25.1 µM [rising, single point].
Consider `O=C1C=CC(=O)c2ccccc21`, for which the AC50 was 50.1 µM [falling, single point].
With `O=C(O)COc1ccc(Cl)cc1`, the AC50 was 0.00251 µM [rising, full curve, poor fit].
The same measure, in the same setting: the figure for `CCCCCCCCCCCCCl` is 0.00447 µM [falling, full curve, poor fit]; for `C=CCOC(=O)C(C)(C)OC(=O)c1cc(-n2c(=O)cc(C(F)(F)F)n(C)c2=O)ccc1Cl` it is 22.4 µM [falling, partial curve, poor fit]; for `COP(=S)(OC)Oc1nc(Cl)c(Cl)cc1Cl` it is 12.6 µM [rising, partial curve, poor fit].
On the same count and under the same terms, with `S=C([S-])NCCNC(=S)[S-].[Zn+2]` the figure was 22.4 µM [rising, single point]; with `CCC(C)(C)c1ccc(O)c(C(C)(C)CC)c1`, 50.1 µM [falling, single point].
For `c1ccc2cc3c(ccc4ccccc43)cc2c1`, the half-maximal activity concentration (AC50) was 35.5 µM [rising, partial curve, poor fit].
Turning to `CC(C)(C)C(=O)[C@@H](Oc1ccc(Cl)cc1)n1cncn1`, the AC50 was 20 µM [rising, full curve, poor fit].
In the case of `OC(c1ccc(Cl)cc1)(c1cncnc1)c1ccccc1Cl` (stereo unspecified), the AC50 is 39.8 µM [falling, single point].
Take `S=C([S-])NCCNC(=S)[S-].[Mn+2]`: the concentration at half-maximal activity (AC50) is 44.7 µM [falling, single point].
On to `CCCCCCCCCc1ccc(O)cc1`, for which the AC50 is 44.7 µM [falling, partial curve, poor fit].
In the case of `O=[N+]([O-])C(Br)(CO)CO`, the half-maximal activity concentration (AC50) is 50.1 µM [falling, single point].

The values are drawn from PubChem BioAssay (NCATS).
